The other results are listed elsewhere or left out. The main result of the screen is listed elsewhere. These columns were measured beside it and carry no call. Compounds called inactive in the main read-out are mostly missing here. Words in brackets tell the shape of the fitted curve; partial curves, single points and poor fits give uncertain potencies.

This assay can be described thus: qHTS Assay for Lipid Storage Modulators in Drosophila S3 Cells.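 On cell number change: cells counted by Cell Tracker Red CMTPX staining in the red channel.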 To be noted: BODIPY lipid droplet fluorescence, 18-24 h; for cell number change: measured here: cell count max response, cells fed with added oleic acid. The method, boiled down: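 Drosophila S3 cells got compounds at several concentrations plus oleic acid (400 uM solution). Laser-scanning cytometry with 488 nm excitation read lipid droplets at 500-530 nm and cells at 575-640 nm. Percent activity was relative to 20 uM Triacsin C.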
For orientation: In qHTS, concentration-response curves come from the screen itself.

The mark [1] stands for this setting: measured here: lipid fluorescence (Fed channel) AC50, cells fed with added oleic acid.
The mark [2] stands for this setting: measured here: cell number channel AC50, cells fed with added oleic acid.

What is called AC50 is the concentration giving half of the maximal activity seen. `CC(C)=CCN1CCC(n2nccc2NC(=O)c2ccccc2Cl)CC1`: the cell number change was determined as 20%. The AC50 under setting [1] is 18.4 µM [rising, single point].
As for `COc1ccccc1NC(=O)CCC(=O)Nc1nnc(C(F)(F)F)s1`, the cell number change was -5.82%. Under setting [2], the AC50 was 6.51 µM [falling, single point]. Moreover, under setting [1], the AC50 was 0.651 µM [falling, full curve].
With `COc1ccc(C)cc1S(=O)(=O)N1CCN(C(=O)c2ncoc2-c2ccccc2C)CC1`, the cell number change came out at 3.95%. For the same molecule, the AC50 under setting [2] was 0.651 µM [rising, partial curve].
For `COCCNC(=O)COC(=O)c1cc(-c2ccc(OC)cc2)nc2ccccc12`, the AC50 reads like this: under setting [2], 0.517 µM [rising, partial curve, poor fit]; under setting [1], 0.58 µM [rising, partial curve, poor fit].
Take `C=CC(=O)OCCOCCOCCOCCOC(=O)C=C`: the cell number change was found to be 12.7%. Moreover, the concentration at half-maximal activity (AC50) under setting [1] was 23.1 µM [rising, single point].
Regarding `O=C(c1ccc(F)cc1)C(CN1CCOCC1)c1ccccc1` (stereo not drawn), the cell number change was -53.2%. In addition, under setting [2], the AC50 is 25.9 µM [falling, partial curve]. In addition, the AC50 under setting [1] was 29.1 µM [falling, partial curve].
Turning to `COc1cccc(C(=O)Nc2ccc(S(=O)(=O)N3CCN(C)CC3)cc2)c1`, the cell number change amounted to 0.952%. Moreover, the AC50 under setting [1] is 2.31 µM [falling, partial curve].
For `COc1cc(C(=O)NCCOc2cccc(C)c2)c(Br)c(OC)c1OC`, the cell number change was -6.97%.
For the molecule `CN(C)S(=O)(=O)n1cc(/C=C(\NC(=O)c2ccccc2)C(=O)NCCCN2CCOCC2)c2ccccc21`, the cell number change worked out at 24.5%. Moreover, under setting [1], the half-maximal activity concentration (AC50) was 6.51 µM [rising, single point].
Turning to `COc1ccc(OC)c(S(=O)(=O)Nc2cc3c(cc2N2CCCC2)n(C)c(=O)c(=O)n3C)c1`, the cell number change amounted to 6.87%.
As to `CCOc1cccc2sc(N3CCN(C(=O)c4ccc5ncsc5c4)CC3)nc12`, the cell number change worked out at 38.5%. Also, the AC50 under setting [2] is 0.058 µM [rising, full curve, poor fit].
With `CCOC(=O)C1=C(C)NC(c2cccs2)C(=O)N1` (stereo not drawn), the cell number change is -3.78%. Also, the AC50 under setting [1] is 29.1 µM [falling, single point].
On to `Cn1nnnc1SCC(=O)NC1CCCC1`, for which the cell number change is -5.13%. Moreover, the AC50 under setting [1] is 0.13 µM [rising, partial curve, poor fit].
Turning to `COc1ccc(N/N=C(/C(N)=O)C2=NC(C)(C)Cc3ccccc32)cc1`, the cell number change is -78.2%. Also, the AC50 under setting [2] was 29.1 µM [falling, single point]. Further, the AC50 under setting [1] was 29.1 µM [falling, single point].
Consider `CC(=O)N1CCN(S(=O)(=O)c2cccc(C(=O)NNC(=O)COc3ccc(F)cc3)c2)CC1`, for which the cell number change was 19%. Further, under setting [1], the AC50 was 18.4 µM [rising, single point].
On to `CC(=O)Nc1ccc(NS(=O)(=O)c2cc(-c3n[nH]c(=O)c4ccccc34)ccc2C)cc1`, for which the cell number change amounted to 1.07%.
Turning to `CCN1CCN(CC(=O)Nc2nc3ccc(OC)cc3s2)CC1`, the cell number change turned out to be 6.83%. Further, the AC50 under setting [1] is 0.58 µM [falling, single point].
Turning to `Cc1c(-c2cccc(Cl)c2)nc2ccccc2c1C(=O)OC/C(O)=C(\C#N)c1nc2ccccc2[nH]1`, the cell number change was -56.2%. Under setting [2], the AC50 was 23.1 µM [falling, single point]. The AC50 under setting [1] was 18.4 µM [falling, single point].
Regarding `C=CC[n+]1c(-c2ccc(C)cc2)csc1NNC(=O)Nc1ccccc1`, the cell number change is -41.9%. Besides, the AC50 under setting [2] is 0.92 µM [falling, full curve]. Also, the AC50 under setting [1] is 25.9 µM [falling, partial curve, poor fit].
`C[C@H]1CN=C(N(C)C)N1CCc1cccc(F)c1`: the cell number change is -32.8%. The AC50 under setting [2] is 0.517 µM [falling, partial curve].
For `CS(=O)(=O)c1ccc(C(=O)Nc2ccc(N3CCCC3)cc2)c(Cl)c1`, the cell number change is 16.3%. For the same molecule, the AC50 under setting [1] was 4.61 µM [falling, single point].
`Cc1ccc2cc(CCNC(=O)C(=O)c3c(C)[nH]c4ccccc34)c(=O)[nH]c2c1`: the cell number change is 12.5%. Besides, under setting [1], the AC50 is 5.8 µM [rising, single point].
Turning to `COc1cccc(/C=C/C(=O)OCC(=O)NCc2ccco2)c1OC`, the cell number change turned out to be 10.5%.
In the case of `Cc1ccc(-n2nc3c(=O)n(CCCC(=O)NCCc4ccccc4)nc(C)c3c2C)cc1`, the cell number change came out at 85.5%. For the same molecule, under setting [2], the AC50 was 14.6 µM [rising, partial curve]. Under setting [1], the AC50 is 5.17 µM [rising, single point].
For the molecule `CC(C)CC(=O)Nc1ccc(-c2cn3cccnc3n2)cc1`, the cell number change turned out to be 9.72%. For the same molecule, the AC50 under setting [1] is 18.4 µM [rising, partial curve].
`Cc1cccc(CCNC(=O)CCS(=O)(=O)c2cc3c(cc2Cl)NC(=O)CO3)c1`: the cell number change is -6.65%.
Turning to `CC(C)(O)c1cc2ccc(C#Cc3ccsc3)cc2c(=O)o1`, the cell number change came out at 5.56%. In addition, the AC50 under setting [1] was 1.16 µM [rising, single point].
As for `CC(=O)N1CCSc2ccc(S(=O)(=O)NCCc3ccc(Cl)cc3)cc21`, under setting [2], the AC50 was 1.3 µM [rising, full curve, poor fit].
`CC(C)c1nc(SCC(=O)Nc2ccc3c(c2)OCO3)n[nH]1`: the AC50 under setting [1] was 3.66 µM [rising, single point].
As to `CCN/N=C(\Cc1nc2ccccc2[nH]1)c1ccccc1`, the AC50 under setting [2] is 4.11 µM [rising, single point] and the AC50 under setting [1] was 5.8 µM [rising, single point].
In the case of `CC1CCCN(c2ccc(C(=O)NCc3ccco3)cc2[N+](=O)[O-])C1` (stereo not drawn), the cell number change is 15.7%.
For the molecule `O=C(CSc1nnc(CNC(=O)c2ccc(F)cc2)o1)NCc1ccccc1`, the cell number change is -26.7%. The AC50 under setting [1] is 0.0082 µM [falling, full curve, poor fit].
Turning to `COc1ccc(CCNc2oc(COc3ccccc3Cl)nc2C#N)cc1OC`, the cell number change was -31.6%. Further, the AC50 under setting [2] is 14.6 µM [falling, partial curve]. For the same molecule, the AC50 under setting [1] is 16.4 µM [falling, single point].
Take `[O-]/[N+](=C\c1ccco1)c1ccc(Cl)cc1`: the cell number change was found to be 3.28%.
On to `Cc1nn(CC(=O)NC(=O)NC2CCCCC2C)c(=O)c(C#N)c1C` (stereo not drawn), for which the cell number change was found to be 2.15%. Besides, the AC50 under setting [1] was 18.4 µM [rising, single point].
For `CC(C)NC(=O)c1ccc(-c2ccc(Cl)c(C(F)(F)F)c2)o1`, the cell number change was determined as 109%. The AC50 under setting [2] was 20.6 µM [rising, partial curve]. Further, under setting [1], the AC50 was 4.11 µM [rising, single point].
As to `Cc1cc(Cl)c(S(=O)(=O)N2CC(C)OC(C)C2)cc1OCC(N)=O` (stereo not drawn), the cell number change was 33%. The AC50 under setting [2] is 0.103 µM [rising, full curve, poor fit]. In addition, the AC50 under setting [1] is 0.231 µM [rising, full curve, poor fit].
Consider `CCOC(=O)[C@H]1[C@H]2COc3ccc(Cl)cc3[C@@H]2N2C(=O)c3cc(F)ccc3NC(=O)[C@@]12C`, for which the AC50 under setting [2] is 6.51 µM [falling, single point].
For the molecule `Cc1cc(C(=O)N/N=C/c2ccc(-c3cccc(Br)c3)o2)n[nH]1`, the cell number change is -32.8%. Moreover, the AC50 under setting [2] is 8.2 µM [falling, partial curve, poor fit].
Regarding `CCc1nc(N(CC)CC)c2oc3ccccc3c2n1`, the cell number change was -44.8%. Moreover, under setting [2], the AC50 is 29.1 µM [falling, single point]. For the same molecule, the AC50 under setting [1] was 32.6 µM [falling, single point].
Regarding `O=C(c1ccc(Cn2cc([N+](=O)[O-])cn2)o1)N1CCCCCC1`, the cell number change is -49.8%. Further, the AC50 under setting [2] was 35.5 µM [falling, single point].
In the case of `COC(=O)[C@@]1(Cc2ccc(F)cc2)[C@H]2c3cc(C(=O)N(C)C)n(CCc4ccccn4)c3C[C@H]2CN1C(=O)c1ccccc1`, the cell number change is -4.34%. In addition, the AC50 under setting [1] is 6.51 µM [rising, single point].
Take `Cc1cccc(C)c1NC(=O)C(c1ccc([N+](=O)[O-])cc1)N1CCCCC1` (stereo not drawn): the cell number change stood at 14.5%. Besides, the AC50 under setting [1] is 4.11 µM [rising, single point].
Regarding `Cc1ccccc1NC(=S)NC(=O)c1cc(-c2ccccc2)nc2ccccc12`, the cell number change stood at 30.8%. Further, the AC50 under setting [2] is 16.4 µM [rising, single point]. The AC50 under setting [1] is 29.1 µM [rising, single point].
Take `CCC(C)(C)NC(=O)C(c1ccc(OC)cc1)N(CC1CCCO1)C(=O)CCC(=O)Nc1cc(C)on1` (stereo not drawn): the cell number change was -25.4%. In addition, under setting [1], the AC50 was 11.6 µM [falling, partial curve].
With `C/C(=C\c1cc(C(=O)O)c(C)o1)CO`, the cell number change is -24.8%. In addition, the half-maximal activity concentration (AC50) under setting [2] was 3.66 µM [falling, full curve, poor fit]. Besides, under setting [1], the AC50 is 3.26 µM [falling, partial curve].
In the case of `CCOC(=O)CN1C(=O)C2(OCCCO2)c2ccccc21`, the AC50 under setting [1] is 0.231 µM [falling, full curve].
On to `Cc1ncsc1C(=O)Nc1nc2c(s1)CCCC2`, for which the AC50 by setting is: under setting [2], 1.84 µM [rising, partial curve]; under setting [1], 4.11 µM [rising, partial curve].
With `COc1cc(NC(=O)Cn2nc(C(F)(F)F)c(Br)c2C)cc([N+](=O)[O-])c1`, the cell number change was -30.3%. The AC50 under setting [2] was 11.6 µM [falling, partial curve]. Under setting [1], the AC50 was 14.6 µM [falling, partial curve, poor fit].
`CCOC(=O)C(NC(=O)Nc1ccc(F)cc1F)(Oc1ccc(F)cc1)C(F)(F)F` (stereo not drawn): the cell number change is -37.6%. For the same molecule, the AC50 under setting [2] was 1.16 µM [falling, full curve, poor fit].
Turning to `CC(=O)NC(CC(C)C)C(=O)NC(=O)NCc1ccccc1` (stereo not drawn), the cell number change stood at 13.8%.
As for `CCOC(=O)Cn1c(=O)oc2cc(S(=O)(=O)Nc3ccc(F)cc3)ccc21`, the cell number change was -23.1%.
As for `CC(C)(C)c1ccc(S(=O)(=O)N2CCN(CC(=O)NC(=O)NC3CCCCC3)CC2)cc1`, the cell number change was -35.5%. In addition, the AC50 under setting [2] is 13 µM [falling, partial curve]. For the same molecule, the AC50 under setting [1] is 32.6 µM [falling, partial curve, poor fit].
Take `COc1ccc(NC(=S)c2ccc3ccccc3n2)cc1`: the cell number change was -12.5%. In addition, the AC50 under setting [1] was 18.4 µM [falling, partial curve].
On to `Cc1ccc(-c2nn(-c3ccccc3)cc2C=O)o1`, for which the cell number change is -7.69%. In addition, the AC50 under setting [2] was 0.092 µM [rising, full curve, poor fit].
As to `CCn1c(SCC(=O)Nc2ccc3c(c2)OCO3)nnc1C(C)C`, the cell number change was -20.6%. The AC50 under setting [1] was 29.1 µM [rising, single point].

Source of the values: PubChem BioAssay AID2685 (National Center for Advancing Translational Sciences (NCATS), 2010).
